Test results published in the supplement of paper PMC10849652.
The list shows a part of the results.

Sequences of proteins named here, by UniProt entry; tags and fusion partners are left off. A change or cut given only in a name is not applied to a line headed by its entry.
UniProt Q9NRH1: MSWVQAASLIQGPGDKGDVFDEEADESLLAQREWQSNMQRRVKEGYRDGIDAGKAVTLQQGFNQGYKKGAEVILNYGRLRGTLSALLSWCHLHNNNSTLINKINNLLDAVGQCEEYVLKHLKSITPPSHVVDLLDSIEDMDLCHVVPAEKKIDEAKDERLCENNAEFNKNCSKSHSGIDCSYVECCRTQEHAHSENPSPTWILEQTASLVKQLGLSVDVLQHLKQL
UniProt Q8TBF4: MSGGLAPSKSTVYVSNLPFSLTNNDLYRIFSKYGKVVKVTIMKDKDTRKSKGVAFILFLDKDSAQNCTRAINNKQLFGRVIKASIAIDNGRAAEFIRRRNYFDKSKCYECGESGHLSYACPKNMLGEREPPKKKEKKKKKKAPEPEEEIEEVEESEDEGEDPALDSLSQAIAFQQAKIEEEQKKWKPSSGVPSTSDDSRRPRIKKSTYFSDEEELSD
UniProt Q9UIJ5: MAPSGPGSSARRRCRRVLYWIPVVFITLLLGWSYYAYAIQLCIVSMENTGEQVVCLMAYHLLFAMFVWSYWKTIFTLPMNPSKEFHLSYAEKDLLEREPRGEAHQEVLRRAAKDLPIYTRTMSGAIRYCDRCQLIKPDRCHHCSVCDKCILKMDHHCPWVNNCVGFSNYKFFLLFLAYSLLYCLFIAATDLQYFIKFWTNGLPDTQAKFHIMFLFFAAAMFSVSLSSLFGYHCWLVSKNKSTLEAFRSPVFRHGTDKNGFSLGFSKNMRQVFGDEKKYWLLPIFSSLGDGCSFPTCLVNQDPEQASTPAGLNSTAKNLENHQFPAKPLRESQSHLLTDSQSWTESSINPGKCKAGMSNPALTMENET
UniProt P37275: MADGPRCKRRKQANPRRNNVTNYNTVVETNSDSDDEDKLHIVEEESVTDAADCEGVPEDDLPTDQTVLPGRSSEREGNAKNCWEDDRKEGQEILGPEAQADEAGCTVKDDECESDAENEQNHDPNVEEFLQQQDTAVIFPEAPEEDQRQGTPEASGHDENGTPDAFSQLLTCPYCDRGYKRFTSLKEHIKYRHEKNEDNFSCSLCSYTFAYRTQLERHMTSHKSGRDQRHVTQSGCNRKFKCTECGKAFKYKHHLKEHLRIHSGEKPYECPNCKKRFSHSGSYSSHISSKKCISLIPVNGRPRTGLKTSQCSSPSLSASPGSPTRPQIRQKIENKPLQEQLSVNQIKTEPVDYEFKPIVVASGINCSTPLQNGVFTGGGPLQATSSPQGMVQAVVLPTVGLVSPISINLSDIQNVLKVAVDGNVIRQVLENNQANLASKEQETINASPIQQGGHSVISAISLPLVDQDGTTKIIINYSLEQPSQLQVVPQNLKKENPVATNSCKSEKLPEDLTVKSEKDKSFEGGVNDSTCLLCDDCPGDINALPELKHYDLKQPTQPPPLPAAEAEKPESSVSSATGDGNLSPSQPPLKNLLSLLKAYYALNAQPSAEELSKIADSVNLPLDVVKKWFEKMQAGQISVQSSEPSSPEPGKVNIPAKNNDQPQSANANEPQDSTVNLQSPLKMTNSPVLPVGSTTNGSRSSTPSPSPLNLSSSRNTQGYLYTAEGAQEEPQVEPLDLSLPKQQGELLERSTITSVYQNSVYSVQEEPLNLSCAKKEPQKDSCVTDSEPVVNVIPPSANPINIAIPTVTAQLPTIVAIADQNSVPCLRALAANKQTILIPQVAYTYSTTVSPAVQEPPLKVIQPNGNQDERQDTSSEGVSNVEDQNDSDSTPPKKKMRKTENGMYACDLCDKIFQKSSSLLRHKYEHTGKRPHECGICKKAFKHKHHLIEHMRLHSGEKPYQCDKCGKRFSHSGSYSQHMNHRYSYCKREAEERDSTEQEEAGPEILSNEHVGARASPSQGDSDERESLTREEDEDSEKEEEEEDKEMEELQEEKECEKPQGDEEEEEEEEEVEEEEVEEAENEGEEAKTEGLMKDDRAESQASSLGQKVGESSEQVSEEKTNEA
UniProt O43167: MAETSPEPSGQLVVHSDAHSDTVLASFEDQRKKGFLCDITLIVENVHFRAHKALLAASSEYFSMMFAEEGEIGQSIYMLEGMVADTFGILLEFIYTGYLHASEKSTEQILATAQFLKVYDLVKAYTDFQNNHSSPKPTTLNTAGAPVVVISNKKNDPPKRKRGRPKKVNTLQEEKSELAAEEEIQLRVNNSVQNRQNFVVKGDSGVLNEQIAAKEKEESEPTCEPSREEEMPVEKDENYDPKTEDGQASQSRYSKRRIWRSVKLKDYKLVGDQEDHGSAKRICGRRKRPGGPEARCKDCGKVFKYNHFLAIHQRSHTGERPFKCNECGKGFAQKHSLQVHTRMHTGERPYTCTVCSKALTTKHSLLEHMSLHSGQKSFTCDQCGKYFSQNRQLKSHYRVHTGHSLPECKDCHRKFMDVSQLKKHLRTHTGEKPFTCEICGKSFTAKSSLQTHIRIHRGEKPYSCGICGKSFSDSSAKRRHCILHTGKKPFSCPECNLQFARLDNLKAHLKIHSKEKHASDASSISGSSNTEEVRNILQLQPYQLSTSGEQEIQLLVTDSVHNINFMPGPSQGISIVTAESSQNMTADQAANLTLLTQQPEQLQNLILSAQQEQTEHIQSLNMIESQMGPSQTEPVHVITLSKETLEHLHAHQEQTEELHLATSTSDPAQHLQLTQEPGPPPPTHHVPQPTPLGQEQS
UniProt Q96DA0: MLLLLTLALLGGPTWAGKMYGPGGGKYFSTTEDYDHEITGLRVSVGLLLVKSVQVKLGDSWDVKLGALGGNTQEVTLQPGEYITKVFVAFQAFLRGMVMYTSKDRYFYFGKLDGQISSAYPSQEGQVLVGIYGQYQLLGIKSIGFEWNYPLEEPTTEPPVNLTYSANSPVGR
UniProt O43542: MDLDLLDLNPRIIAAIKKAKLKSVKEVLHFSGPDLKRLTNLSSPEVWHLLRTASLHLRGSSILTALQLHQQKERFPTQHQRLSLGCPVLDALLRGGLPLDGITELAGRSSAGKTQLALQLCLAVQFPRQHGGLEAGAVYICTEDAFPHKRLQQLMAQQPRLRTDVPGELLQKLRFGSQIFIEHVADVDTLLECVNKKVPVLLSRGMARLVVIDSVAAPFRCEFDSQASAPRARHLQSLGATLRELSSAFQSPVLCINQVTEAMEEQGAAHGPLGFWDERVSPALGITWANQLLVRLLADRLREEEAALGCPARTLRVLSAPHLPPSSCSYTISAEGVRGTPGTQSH
UniProt Q9H8U3: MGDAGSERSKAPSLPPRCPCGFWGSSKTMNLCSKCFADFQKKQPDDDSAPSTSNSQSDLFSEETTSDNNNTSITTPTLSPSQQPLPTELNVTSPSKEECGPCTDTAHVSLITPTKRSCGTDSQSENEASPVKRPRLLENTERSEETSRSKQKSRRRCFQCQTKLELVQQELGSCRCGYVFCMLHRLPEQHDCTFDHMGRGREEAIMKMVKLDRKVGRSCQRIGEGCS
UniProt Q9C0D7: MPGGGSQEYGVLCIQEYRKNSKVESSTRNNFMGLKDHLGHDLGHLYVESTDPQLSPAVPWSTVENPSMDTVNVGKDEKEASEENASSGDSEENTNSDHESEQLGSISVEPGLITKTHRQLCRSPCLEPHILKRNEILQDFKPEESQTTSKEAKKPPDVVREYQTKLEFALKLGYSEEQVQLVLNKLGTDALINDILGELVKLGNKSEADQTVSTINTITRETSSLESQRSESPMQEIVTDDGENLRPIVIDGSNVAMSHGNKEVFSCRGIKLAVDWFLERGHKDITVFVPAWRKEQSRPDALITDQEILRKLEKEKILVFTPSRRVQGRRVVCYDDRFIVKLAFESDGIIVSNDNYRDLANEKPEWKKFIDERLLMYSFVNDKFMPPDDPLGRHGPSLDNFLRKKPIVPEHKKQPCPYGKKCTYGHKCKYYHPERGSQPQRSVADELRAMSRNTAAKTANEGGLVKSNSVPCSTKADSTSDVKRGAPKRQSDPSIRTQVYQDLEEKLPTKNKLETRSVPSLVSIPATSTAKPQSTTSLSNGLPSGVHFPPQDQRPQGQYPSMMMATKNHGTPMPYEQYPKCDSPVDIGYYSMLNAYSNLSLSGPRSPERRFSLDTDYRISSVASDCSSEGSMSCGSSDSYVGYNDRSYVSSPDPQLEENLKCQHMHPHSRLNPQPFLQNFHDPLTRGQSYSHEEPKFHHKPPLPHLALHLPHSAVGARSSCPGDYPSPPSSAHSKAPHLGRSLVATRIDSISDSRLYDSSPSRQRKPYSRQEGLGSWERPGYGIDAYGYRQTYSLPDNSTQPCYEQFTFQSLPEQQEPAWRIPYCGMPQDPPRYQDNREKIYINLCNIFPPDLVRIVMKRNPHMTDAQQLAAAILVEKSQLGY
UniProt Q9Y2K1: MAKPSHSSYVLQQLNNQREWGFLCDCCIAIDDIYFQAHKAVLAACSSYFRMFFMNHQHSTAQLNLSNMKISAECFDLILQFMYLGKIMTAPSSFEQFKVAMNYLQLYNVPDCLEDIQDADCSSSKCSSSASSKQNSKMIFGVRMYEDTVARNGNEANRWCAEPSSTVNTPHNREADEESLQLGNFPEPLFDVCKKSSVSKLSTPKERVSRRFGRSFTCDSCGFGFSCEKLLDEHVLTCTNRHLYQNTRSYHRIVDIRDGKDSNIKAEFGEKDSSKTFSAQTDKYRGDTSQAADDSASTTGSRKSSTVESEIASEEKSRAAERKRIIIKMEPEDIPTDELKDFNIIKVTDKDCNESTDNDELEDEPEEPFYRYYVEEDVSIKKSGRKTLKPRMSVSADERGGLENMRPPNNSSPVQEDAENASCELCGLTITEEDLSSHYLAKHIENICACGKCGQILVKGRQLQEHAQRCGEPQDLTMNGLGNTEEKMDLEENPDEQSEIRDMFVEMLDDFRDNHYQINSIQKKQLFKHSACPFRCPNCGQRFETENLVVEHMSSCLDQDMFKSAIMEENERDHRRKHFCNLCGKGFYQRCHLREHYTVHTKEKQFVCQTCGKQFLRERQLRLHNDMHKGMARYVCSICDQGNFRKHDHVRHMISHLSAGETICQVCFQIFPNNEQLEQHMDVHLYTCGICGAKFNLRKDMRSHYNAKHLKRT
UniProt Q8TCF1: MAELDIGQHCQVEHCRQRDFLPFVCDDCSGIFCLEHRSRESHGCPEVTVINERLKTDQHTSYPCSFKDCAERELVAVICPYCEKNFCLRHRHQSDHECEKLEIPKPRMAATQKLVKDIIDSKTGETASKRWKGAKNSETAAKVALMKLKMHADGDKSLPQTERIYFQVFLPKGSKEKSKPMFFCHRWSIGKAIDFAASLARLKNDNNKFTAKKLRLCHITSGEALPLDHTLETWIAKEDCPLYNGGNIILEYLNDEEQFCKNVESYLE
UniProt Q8N680: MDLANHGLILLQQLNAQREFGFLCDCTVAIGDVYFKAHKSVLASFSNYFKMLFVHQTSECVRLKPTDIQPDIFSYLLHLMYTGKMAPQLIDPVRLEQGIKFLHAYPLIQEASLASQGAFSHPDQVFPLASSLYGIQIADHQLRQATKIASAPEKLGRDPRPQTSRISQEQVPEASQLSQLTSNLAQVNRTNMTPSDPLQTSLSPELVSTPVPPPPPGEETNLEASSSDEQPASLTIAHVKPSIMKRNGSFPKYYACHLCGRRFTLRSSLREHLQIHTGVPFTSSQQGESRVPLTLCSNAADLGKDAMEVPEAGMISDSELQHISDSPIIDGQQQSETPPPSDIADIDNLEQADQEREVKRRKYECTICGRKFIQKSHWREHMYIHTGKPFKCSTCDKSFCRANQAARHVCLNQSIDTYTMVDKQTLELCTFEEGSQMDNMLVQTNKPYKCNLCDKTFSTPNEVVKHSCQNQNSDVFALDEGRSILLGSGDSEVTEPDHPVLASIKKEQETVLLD
UniProt Q9H869: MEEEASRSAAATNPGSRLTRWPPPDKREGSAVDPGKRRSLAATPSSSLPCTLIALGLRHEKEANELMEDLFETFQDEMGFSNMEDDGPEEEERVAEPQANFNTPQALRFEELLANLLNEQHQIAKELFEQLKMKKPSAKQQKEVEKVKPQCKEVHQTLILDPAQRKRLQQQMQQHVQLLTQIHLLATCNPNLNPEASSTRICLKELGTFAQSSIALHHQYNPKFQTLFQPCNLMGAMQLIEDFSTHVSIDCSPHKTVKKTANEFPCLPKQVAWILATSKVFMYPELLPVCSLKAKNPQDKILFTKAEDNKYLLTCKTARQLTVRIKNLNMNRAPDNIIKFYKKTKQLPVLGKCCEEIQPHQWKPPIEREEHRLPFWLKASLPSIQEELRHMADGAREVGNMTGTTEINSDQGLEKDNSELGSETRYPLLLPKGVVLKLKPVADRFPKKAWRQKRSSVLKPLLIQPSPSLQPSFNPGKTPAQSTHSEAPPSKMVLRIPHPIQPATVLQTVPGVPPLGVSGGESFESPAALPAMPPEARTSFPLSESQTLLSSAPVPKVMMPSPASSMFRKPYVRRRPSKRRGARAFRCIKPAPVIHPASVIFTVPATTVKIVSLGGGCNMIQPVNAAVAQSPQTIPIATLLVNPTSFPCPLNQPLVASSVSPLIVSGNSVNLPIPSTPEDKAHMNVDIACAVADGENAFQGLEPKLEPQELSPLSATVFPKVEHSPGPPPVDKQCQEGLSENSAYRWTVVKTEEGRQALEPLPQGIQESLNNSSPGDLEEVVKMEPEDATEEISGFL

compound: CN1CC[C@H](c2c(O)cc(O)c3c(=O)cc(-c4ccccc4Cl)oc23)[C@H](O)C1 [alvocidib]; experiment: log2 fold change, soluble protein after heating vs DMSO (PISA); higher = thermal stabilisation; K562 lysate, 10 uM; active = over 0.2 and 3.5 SD of the protein, either way, in both replicates (recomputed)
Method in brief: (§1)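 Pellets of K562 cells were dounce-homogenised in PBS pH 7.4 with 1 mM MgCl2, and the crude extract was held at 1 mg/mL protein for a 30 min treatment with 10 μM compound. Aliquots were heated for 3 min over 48°C-58°C and pooled before NP-40 was added to 0.5% at 4°C. The supernatant from 21,000xg for 90 min was quantified by TMTpro 16plex LC-MS/MS with channel sums equalised. Values are reported from duplicates as log-two fold change in thermal stability relative to solvent controls.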

log2 fold change, inactive:
YAE1 (UniProt Q9NRH1) -0.005
ZC3H7A (UniProt Q8IWR0) 0.172
ZDHHC4 (UniProt Q9NPG8) 0.159
ZFYVE21 isoform 2 (UniProt Q9BQ24) -0.021
ZCRB1 (UniProt Q8TBF4) 0.001
ZDHHC2 (UniProt Q9UIJ5) -0.044
ZFP36L2 (UniProt P47974) -0.027
ZDHHC14 (UniProt Q8IZN3) 0.066
ZFPM2 (UniProt Q8WW38) 0.066
YWHAH (UniProt Q04917) 0.087
ZEB1 isoform 2 (UniProt P37275) -0.057
ZFYVE19 (UniProt Q96K21) -0.141
ZFP64 isoform 5 (UniProt Q9NTW7) -0.051
ZDHHC13 (UniProt Q8IUH4) 0
ZBTB24 (UniProt O43167) 0.047
XPOT (UniProt O43592) 0.004
ZDHHC17 (UniProt Q8IUH5) -0.44
ZBTB14 (UniProt O43829) -0.027
YIF1A (UniProt O95070) 0.038
ZADH2 (UniProt Q8N4Q0) -0.025
ZG16B (UniProt Q96DA0) -0.07
ZFPL1 (UniProt O95159) 0.019
ZBTB7A (UniProt O95365) -0.146
ZFYVE1 (UniProt Q9HBF4) 0.22
XRCC3 (UniProt O43542) -0.123
ZFAND3 (UniProt Q9H8U3) -0.004
YAF2 isoform 5 (UniProt Q8IY57) 0.107
XPNPEP3 (UniProt Q9NQH7) 0.014
ZBTB3 (UniProt Q9H5J0) -0.169
ZC3H12C isoform 2 (UniProt Q9C0D7) -0.252
ZFAND5 (UniProt O76080) -0.026
ZBTB1 (UniProt Q9Y2K1) -0.133
ZFAND1 (UniProt Q8TCF1) 0.241
ZBTB10 (UniProt Q96DT7) -0.069
ZFAND6 (UniProt Q6FIF0) -0.058
ZBTB2 (UniProt Q8N680) -0.005
ZBTB40 (UniProt Q9NUA8) 0.09
YY1AP1 isoform 9 (UniProt Q9H869) 0.075
YJU2 (UniProt Q9BW85) -0.026

compound: CN1CCc2c(c3ccccc3n2Cc2ccc(C(=O)NO)cc2)C1 [Tubastatin A]; experiment: as above
Method in brief: as §1

log2 fold change, inactive:
YAE1 (UniProt Q9NRH1) 0.062
ZC3H7A (UniProt Q8IWR0) -0.106
ZDHHC4 (UniProt Q9NPG8) 0.061
ZFYVE21 isoform 2 (UniProt Q9BQ24) -0.141
ZCRB1 (UniProt Q8TBF4) -0.013
ZDHHC2 (UniProt Q9UIJ5) -0.087
ZFP36L2 (UniProt P47974) -0.23
ZDHHC14 (UniProt Q8IZN3) 0.067
YWHAH (UniProt Q04917) 0.052
ZEB1 isoform 2 (UniProt P37275) 0.019
ZFYVE19 (UniProt Q96K21) 0.026
ZFP64 isoform 5 (UniProt Q9NTW7) -0.133
ZBTB24 (UniProt O43167) 0.089
XPOT (UniProt O43592) -0.133
ZDHHC17 (UniProt Q8IUH5) 0.074
ZBTB14 (UniProt O43829) 0.028
YIF1A (UniProt O95070) -0.096
ZADH2 (UniProt Q8N4Q0) -0.055
ZG16B (UniProt Q96DA0) 2.23
ZFPL1 (UniProt O95159) 0.078
ZBTB7A (UniProt O95365) -0.116
ZFYVE1 (UniProt Q9HBF4) 0.055
XRCC3 (UniProt O43542) -0.026
ZFAND3 (UniProt Q9H8U3) 0.064
YAF2 isoform 5 (UniProt Q8IY57) -0.027
XPNPEP3 (UniProt Q9NQH7) 0.024
ZBTB3 (UniProt Q9H5J0) 0.027
ZC3H12C isoform 2 (UniProt Q9C0D7) -0.147
ZFAND5 (UniProt O76080) 0.141
ZBTB1 (UniProt Q9Y2K1) -0.035
ZFAND1 (UniProt Q8TCF1) -0.025
ZBTB10 (UniProt Q96DT7) -0.006
ZFAND6 (UniProt Q6FIF0) 0.126
ZBTB2 (UniProt Q8N680) 0.043
ZBTB40 (UniProt Q9NUA8) -0.089
YY1AP1 isoform 9 (UniProt Q9H869) 0.037
YJU2 (UniProt Q9BW85) 0.008
